Laboratory results from doi:10.1101/257543 (bioRxiv, 2018).
Results are given in words; binding and its absence hold for the method and conditions named. One block for each binder: values may come before it.

Key:
Test in all cases: SEC
[1] = biological target: SERK1 LRR ectodomain (SERK1^24-213) (A. thaliana) (UniProt Q94AG2)
[2] = biological target: BRI1 LRR ectodomain (BRI1^1-799) (A. thaliana) (UniProt O22476)
[3] = biological target: T1, SERK3 cytoplasmic domain (residues 250-615) (A. thaliana), Q94F62; details: remark: other sources report otherwise
T1 chain: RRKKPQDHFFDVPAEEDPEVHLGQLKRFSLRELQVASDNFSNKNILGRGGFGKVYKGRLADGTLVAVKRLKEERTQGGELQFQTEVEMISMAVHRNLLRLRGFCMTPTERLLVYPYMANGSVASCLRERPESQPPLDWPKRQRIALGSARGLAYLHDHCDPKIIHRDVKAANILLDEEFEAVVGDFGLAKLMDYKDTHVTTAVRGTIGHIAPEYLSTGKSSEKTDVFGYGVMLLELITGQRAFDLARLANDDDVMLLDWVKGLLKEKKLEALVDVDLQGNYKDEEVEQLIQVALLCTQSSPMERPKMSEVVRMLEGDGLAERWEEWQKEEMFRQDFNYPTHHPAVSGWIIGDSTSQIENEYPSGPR

[4] = biological target: T2, BRI1 cytoplasmic domain (residues 814-1196) (A. thaliana), O22476; details: remark: other sources report otherwise
T2 chain: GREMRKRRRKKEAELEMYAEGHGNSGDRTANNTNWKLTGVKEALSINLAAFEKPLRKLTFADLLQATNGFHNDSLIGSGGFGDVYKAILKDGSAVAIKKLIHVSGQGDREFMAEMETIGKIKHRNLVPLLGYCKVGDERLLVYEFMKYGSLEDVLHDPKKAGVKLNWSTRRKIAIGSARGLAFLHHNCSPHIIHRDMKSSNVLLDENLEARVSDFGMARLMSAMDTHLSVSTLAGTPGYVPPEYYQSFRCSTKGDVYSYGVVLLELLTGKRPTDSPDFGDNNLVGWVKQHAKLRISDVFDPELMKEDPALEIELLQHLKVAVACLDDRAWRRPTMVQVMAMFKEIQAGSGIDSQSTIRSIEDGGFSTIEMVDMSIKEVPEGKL

B1: SERK1 LRR ectodomain (SERK1^24-213) (domain or fragment, UniProt Q94AG2 24-213)
chain: ASANLEGDALHTLRVTLVDPNNVLQSWDPTLVNPCTWFHVTCNNENSVIRVDLGNAELSGHLVPELGVLKNLQYLELYSNNITGPIPSNLGNLTNLVSLDLYLNSFSGPIPESLGKLSKLRFLRLNNNSLTGSIPMSLTNITTLQVLDLSNNRLSGSVPDNGSFSLFTPISFANNLDLCGPVTSHPCPGS
modifications: N-glycosylated (fully glycosylated in the crystal; sites not given)
binding [1]: no binding

B4: BRI1 cytoplasmic domain (residues 814-1196), O22476 814-1196 (domain or fragment)
chain: T2 chain
binding [4]: no binding

Results, then the binder that gave them:

binding [2]: no binding
B2: BIR2 LRR ectodomain (BIR2^1-222), wild type (domain or fragment, A. thaliana, UniProt Q9LSI9 29-222, looked up)
chain: ADEDDIRCLRGLKASLTDPQNALKSWNFDNTTLGFLCNFVGVSCWNNQENRVINLELRDMGLSGKIPDSLQYCASLQKLDLSSNRLSGNIPTELCNWLPFLVSLDLSNNELNGEIPPDLAKCSFVNSLVLSDNRLSGQIPVQFSALGRLGRFSVANNDLSGRIPVFFSSPSYSSDDFSGNKGLCGRPLSSSCGG
modifications: N-glycan at Asn58 (in the crystal structure)

binding [3]: no binding
B3: SERK3 cytoplasmic domain (residues 250-615), Q94F62 250-615 (domain or fragment)
chain: T1 chain
